Experimental data taken from patent US12595239B2, “Substituted isoxazoline derivatives” (BASF SE, priority 2021, dated 2026).
Some of these results come from one statement about several compounds together. For at least one compound, name, drawing or mass did not settle the structure.

Legend:
[1] = system: Spodoptera eridania; experiment: B.11 Southern Armyworm 2nd instar larvae, lima bean foliar spray test; assay type: in vivo; details: 300 ppm, 4 days after treatment
In short: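 Compounds diluted in 50% acetone/water with 0.01% nonionic surfactant and electrostatically sprayed onto lima bean plants (Sieva) at 1st true leaf stage. After drying, 10–11 larvae per bagged pot, held at about 25 °C, 20–40% RH, 14:10 photoperiod. Mortality and reduced feeding scored at 4 days versus untreated plants.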

[2] = system: Tetranychus kanzawai; experiment: B.10 Red Spider Mite, cowpea bean spray test; assay type: in vivo; details: 300 ppm; 72 hours after treatment
Description: The active compound was dissolved at the desired concentration in a mixture of 1:1 (vol:vol) distilled water:acetone. Add surfactant (Kinetic) was added at a rate of 0.01% (vol/vol). The test solution was prepared at the day of use. Potted cowpea beans of 4-5 days of age were cleaned with tap water and sprayed with I-2 ml of the test solution using air driven DeVilbiss® hand atomizer at 20-30 psi (≈1,38 to 2,07 bar). The treated plants were allowed to air dry and afterwards inoculated with 30 or more mites by clipping a cassava leaf section from rearing population. Treated plants were placed inside a holding room at about 25-26° C. and about 65-70% relative humidity. Percent mortality was assessed 72 hours after treatment.

SMILES	mortality in comparison with untreated controls [1]	mortality in comparison with untreated controls [2]
O=C(NC1CC1)c1cc(OC2=NOC(c3cc(Cl)c(F)c(Cl)c3)(C(F)(F)F)C2)ccc1Cl (stereo not shown) [II-4]	at least 75%	at least 75%
O=C(Nc1ncc(F)cc1F)c1cc(NC2=NOC(c3cc(Cl)cc(Cl)c3)(C(F)(F)F)C2)ccc1Cl (stereo not shown) [I-174]	at least 75%	at least 75%
